Where a name gives a salt, the structure may show the parent alone. Some of the results follow. Hit calls seldom repeat between salt and free forms of one compound.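 In K562 cells expressing nanoluciferase-fused kinases, luminescence was recorded at 4 h intervals between 2 and 18 h, normalized as percent of control with DMSO at 100% and a positive control at 0%. A significant (2 sigma) signal drop marks a time point as decreased. The authors' rule for a hit is not shown and takes in more than the number of time points.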
Legend:
Assay in all cases: number of time points (of 5) at which kinase-Nluc abundance scored as decreased, DMSO-normalised (count); higher = more persistent destabilization
Settings in all cases: K562; 2-18 h
EGFR_L861Q = EGFR_L861Q (UniProt P00533)
EGFR_T790M = EGFR_T790M (UniProt P00533)
EPHA2 = EPHA2 (UniProt P29317)
ERBB3 = ERBB3 (UniProt P21860)
[1] = target: ERBB4_R711C (clone: ERBB4_mut) (UniProt Q15303)
ERN1 = ERN1 (UniProt O75460)
FGFR1 = FGFR1 (UniProt P11362)
FGFR2 = FGFR2 (UniProt P21802)
FGFR3 = FGFR3 (UniProt P22607)
FGR = FGR (UniProt P09769)

Protein sequences, listed by entry. Tags and fused reporters are not part of them. Lines headed by an entry give the natural chain unless they say otherwise; changes in a name come on top.
UniProt P29317, whole entry: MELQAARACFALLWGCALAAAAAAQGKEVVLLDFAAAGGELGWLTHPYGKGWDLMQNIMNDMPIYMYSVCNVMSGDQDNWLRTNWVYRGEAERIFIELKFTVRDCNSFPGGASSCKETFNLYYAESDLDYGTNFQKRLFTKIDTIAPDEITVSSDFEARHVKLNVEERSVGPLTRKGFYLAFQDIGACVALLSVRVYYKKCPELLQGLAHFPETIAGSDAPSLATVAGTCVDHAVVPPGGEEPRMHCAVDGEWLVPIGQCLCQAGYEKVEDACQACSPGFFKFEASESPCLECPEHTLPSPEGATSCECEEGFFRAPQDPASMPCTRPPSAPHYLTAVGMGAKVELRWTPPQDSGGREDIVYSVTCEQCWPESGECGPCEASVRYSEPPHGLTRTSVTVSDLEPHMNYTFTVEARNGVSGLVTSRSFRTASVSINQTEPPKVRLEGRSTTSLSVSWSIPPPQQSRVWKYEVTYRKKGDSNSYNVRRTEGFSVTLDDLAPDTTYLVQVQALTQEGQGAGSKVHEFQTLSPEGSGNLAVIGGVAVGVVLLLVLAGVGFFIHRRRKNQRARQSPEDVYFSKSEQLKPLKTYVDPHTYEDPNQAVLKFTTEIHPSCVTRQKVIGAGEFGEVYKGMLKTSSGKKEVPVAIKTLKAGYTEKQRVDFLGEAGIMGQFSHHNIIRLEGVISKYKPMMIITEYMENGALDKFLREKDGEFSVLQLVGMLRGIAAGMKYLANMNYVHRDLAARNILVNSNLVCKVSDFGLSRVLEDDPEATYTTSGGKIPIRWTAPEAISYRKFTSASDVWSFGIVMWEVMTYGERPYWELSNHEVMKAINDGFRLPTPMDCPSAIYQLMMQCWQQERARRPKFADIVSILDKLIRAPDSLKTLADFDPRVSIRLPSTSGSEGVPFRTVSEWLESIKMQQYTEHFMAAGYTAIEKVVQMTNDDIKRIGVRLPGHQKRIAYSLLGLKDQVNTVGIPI
UniProt P21860, whole entry: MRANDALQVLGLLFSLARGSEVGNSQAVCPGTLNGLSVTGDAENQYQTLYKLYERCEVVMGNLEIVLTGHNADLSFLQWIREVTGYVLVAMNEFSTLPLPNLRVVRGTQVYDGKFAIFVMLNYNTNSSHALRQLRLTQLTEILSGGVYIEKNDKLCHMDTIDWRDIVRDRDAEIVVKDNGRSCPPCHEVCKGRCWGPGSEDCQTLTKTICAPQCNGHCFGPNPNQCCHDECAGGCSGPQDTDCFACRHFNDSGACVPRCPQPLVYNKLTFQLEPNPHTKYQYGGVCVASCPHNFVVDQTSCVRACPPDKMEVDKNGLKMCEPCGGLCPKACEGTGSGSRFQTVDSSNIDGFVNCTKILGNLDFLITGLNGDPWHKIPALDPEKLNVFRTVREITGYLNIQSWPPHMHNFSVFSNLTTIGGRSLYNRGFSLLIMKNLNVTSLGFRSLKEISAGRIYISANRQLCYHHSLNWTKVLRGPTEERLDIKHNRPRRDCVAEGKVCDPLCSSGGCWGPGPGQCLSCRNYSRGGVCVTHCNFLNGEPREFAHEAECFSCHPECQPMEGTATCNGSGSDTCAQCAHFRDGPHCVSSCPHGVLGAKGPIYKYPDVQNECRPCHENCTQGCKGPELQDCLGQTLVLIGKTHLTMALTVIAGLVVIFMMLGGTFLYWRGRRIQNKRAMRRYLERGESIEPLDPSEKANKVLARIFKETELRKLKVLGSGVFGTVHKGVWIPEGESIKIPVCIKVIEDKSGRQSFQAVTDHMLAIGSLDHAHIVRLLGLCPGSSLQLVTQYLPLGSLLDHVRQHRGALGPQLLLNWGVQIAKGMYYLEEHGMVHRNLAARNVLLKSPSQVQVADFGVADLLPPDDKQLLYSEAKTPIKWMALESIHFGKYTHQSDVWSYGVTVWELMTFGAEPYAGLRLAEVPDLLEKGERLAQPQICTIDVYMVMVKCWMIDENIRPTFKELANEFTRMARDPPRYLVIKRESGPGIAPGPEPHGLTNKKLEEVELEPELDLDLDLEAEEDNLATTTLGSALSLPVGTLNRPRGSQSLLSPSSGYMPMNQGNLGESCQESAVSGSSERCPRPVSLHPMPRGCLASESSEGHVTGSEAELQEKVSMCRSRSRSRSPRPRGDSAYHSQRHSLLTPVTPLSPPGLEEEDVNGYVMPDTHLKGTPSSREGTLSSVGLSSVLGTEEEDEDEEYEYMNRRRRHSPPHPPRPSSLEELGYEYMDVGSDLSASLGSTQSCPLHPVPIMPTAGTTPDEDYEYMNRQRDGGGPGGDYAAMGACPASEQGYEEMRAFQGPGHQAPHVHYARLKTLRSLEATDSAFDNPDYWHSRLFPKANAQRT
UniProt Q15303, whole entry R711C: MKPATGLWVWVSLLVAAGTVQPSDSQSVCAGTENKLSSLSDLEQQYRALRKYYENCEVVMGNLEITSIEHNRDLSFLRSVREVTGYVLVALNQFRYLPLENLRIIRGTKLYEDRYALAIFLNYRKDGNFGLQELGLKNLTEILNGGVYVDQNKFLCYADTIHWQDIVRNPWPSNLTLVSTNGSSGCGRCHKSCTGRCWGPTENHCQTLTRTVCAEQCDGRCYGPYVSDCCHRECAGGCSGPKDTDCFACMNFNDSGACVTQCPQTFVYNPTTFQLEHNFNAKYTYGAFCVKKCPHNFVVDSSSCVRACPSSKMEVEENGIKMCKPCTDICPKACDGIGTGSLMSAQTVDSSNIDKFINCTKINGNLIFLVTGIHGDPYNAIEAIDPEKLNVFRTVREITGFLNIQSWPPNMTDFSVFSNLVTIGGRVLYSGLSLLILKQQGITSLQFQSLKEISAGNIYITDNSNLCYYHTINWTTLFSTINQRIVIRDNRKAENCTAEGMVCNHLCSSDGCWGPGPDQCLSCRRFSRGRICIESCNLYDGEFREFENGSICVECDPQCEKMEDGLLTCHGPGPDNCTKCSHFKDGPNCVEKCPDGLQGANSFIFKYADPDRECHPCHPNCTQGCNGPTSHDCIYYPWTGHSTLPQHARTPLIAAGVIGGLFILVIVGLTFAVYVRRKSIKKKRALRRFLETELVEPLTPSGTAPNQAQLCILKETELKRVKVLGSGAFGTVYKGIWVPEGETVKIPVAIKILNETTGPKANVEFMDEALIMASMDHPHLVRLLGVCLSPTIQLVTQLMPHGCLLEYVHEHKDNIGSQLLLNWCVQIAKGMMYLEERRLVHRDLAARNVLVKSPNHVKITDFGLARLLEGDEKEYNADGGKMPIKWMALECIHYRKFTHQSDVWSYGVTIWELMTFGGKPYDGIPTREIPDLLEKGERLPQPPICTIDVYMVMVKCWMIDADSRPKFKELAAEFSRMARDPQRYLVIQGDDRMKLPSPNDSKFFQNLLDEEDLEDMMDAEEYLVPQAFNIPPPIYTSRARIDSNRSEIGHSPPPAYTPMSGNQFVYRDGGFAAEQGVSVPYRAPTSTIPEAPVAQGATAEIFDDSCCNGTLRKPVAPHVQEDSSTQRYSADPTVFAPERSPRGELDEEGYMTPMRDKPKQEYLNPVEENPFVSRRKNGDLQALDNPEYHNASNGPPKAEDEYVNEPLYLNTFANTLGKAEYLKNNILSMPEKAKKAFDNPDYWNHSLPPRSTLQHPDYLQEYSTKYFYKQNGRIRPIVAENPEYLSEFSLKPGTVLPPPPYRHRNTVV
UniProt O75460: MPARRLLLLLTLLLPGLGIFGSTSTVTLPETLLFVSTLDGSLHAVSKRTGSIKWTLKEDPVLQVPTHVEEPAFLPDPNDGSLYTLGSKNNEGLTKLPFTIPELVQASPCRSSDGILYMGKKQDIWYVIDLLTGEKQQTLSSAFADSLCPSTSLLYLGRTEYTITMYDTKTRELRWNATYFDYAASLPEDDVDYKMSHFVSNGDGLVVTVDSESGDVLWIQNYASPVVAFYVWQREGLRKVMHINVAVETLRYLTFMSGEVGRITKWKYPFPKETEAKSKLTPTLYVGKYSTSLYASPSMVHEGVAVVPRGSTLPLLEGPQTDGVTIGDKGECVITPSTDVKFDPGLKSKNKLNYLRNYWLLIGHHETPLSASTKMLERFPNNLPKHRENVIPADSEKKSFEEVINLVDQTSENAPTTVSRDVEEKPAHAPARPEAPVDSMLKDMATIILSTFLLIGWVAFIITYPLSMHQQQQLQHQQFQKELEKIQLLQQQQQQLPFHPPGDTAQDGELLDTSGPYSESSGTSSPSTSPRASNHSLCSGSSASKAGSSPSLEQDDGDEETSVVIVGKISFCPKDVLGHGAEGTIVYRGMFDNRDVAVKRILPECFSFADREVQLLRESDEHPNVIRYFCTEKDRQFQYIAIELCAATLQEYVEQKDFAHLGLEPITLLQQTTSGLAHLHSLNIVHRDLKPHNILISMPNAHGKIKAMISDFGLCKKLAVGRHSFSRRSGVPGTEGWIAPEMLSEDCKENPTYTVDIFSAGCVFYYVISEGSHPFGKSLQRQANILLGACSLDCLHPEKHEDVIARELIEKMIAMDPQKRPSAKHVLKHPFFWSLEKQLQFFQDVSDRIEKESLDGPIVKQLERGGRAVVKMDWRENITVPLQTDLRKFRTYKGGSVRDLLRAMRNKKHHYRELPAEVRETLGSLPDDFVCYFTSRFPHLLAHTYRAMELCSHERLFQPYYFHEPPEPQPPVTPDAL
UniProt P21802, whole entry, looked up: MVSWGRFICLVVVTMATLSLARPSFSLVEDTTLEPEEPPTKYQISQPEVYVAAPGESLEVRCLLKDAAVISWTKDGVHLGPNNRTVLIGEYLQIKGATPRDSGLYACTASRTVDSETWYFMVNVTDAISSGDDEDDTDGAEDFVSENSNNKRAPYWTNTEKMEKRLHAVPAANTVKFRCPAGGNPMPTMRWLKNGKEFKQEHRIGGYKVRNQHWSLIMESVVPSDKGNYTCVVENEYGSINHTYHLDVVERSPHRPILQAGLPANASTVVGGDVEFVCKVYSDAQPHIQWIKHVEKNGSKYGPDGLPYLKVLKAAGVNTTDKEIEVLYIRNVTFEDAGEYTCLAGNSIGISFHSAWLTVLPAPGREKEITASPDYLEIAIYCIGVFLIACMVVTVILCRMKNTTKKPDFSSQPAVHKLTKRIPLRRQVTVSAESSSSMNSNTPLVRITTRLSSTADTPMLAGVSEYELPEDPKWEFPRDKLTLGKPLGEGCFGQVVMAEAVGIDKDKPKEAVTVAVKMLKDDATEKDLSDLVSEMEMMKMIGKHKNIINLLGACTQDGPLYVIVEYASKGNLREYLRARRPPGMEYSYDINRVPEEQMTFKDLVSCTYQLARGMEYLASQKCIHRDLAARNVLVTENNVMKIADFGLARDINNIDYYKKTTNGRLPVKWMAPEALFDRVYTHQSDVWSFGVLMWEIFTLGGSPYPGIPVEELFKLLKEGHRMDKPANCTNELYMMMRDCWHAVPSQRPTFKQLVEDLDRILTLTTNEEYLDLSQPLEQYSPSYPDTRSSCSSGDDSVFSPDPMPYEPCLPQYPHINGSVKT
UniProt P22607, whole entry, looked up: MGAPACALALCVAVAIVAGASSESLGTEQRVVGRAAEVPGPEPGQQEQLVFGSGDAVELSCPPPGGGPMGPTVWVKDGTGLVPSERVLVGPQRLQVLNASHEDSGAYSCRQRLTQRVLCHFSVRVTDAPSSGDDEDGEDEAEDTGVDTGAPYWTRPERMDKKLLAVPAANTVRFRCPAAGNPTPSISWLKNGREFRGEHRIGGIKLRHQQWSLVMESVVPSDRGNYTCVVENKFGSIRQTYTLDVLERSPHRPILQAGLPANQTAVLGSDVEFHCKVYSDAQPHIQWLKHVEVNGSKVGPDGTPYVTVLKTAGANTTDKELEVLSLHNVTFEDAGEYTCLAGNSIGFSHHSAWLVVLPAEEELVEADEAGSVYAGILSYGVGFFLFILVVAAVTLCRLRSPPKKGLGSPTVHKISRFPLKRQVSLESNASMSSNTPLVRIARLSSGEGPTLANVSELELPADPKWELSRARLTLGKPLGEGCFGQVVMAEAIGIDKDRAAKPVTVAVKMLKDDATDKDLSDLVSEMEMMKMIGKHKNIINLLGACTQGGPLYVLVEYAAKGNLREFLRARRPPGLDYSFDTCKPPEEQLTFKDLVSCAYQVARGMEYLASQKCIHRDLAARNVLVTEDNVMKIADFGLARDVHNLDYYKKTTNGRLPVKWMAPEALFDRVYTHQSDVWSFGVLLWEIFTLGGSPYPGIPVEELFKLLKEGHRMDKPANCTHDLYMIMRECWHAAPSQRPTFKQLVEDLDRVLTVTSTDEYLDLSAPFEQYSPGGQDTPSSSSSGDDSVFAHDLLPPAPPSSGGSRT

Measured: number of time points

N[C@@H](CCC(=O)O)C(=O)N[C@@H](Cc1c[nH]c2ccccc12)C(=O)O [Oglufanide] (10 µM)
0: all assays above

CC(=O)c1c(C)c2cnc(Nc3ccc(N4CCN(C(=O)CNc5cccc6c5C(=O)N(C5CCC(=O)NC5=O)C6=O)CC4)cn3)nc2n(C2CCCC2)c1=O (stereo not given) (10 µM)
0: all assays above

Cc1cnc(-c2ccc(-c3ccc(NC(=O)Nc4cccc(C(F)(F)F)c4)cc3F)c3c2C(=O)NC3)[nH]1 (10 µM)
1: [1] | FGFR3
3: EGFR_L861Q
2: FGFR2
0: all other assays above

COc1cc(N(C)CCN(C)C)c(N)cc1Nc1nccc(-c2cn(C)c3ccccc23)n1 [Mutated EGFR-IN-1] (10 µM)
1: EGFR_L861Q
0: all other assays above

CCc1cncnc1N1CCN(Cc2nc3ccc(C(F)(F)F)cc3[nH]2)CC1 (10 µM)
0: all assays above

Cc1cc(-c2ccnc(Nc3cnn(C)c3)n2)ccc1CNC(=O)N1CC(OC(C)C)C1 (10 µM)
0: all assays above

CNC(=O)c1ccccc1Nc1nc(Nc2ccc3c(c2OC)CCC[C@H](N2CCN(CCO)CC2)C3)ncc1Cl (10 µM)
3: ERBB3 | [1] | FGFR2
2: EGFR_L861Q | ERN1
1: FGFR1
0: all other assays above

CNc1nc(Nc2cn(C(C)(C)C#N)nc2C)ncc1C(F)(F)F (10 µM)
0: all assays above

Cc1ccn2c(C(=O)C(=O)c3ccccc3)c(-c3ccccc3)nc2c1 (10 µM)
0: all assays above

COc1ncccc1-c1cnn2ccc(N3CCN(C(=O)OC(C)C)CC3)nc12 (10 µM)
1: EGFR_L861Q
2: EGFR_T790M | ERN1
0: all other assays above

COc1c(Nc2cc(C)[nH]n2)nc(Sc2ccc(S(=O)(=O)Cc3cccc([N+](=O)[O-])c3F)cc2F)nc1N1CCCCC1 [Centrinone-B] (2.5 µM)
0: all assays above

CC(C)=CCc1c(-c2ccc(O)cc2O)oc2c3c(cc(O)c2c1=O)OC(C)(C)C=C3 [Morusin] (2.5 µM)
0: all assays above

COc1ccc2cc3[n+](cc2c1OC)CCc1cc(O)c(O)cc1-3 [Demethyleneberberine] (10 µM)
0: all assays above

Cc1ccc2c(Nc3cccc(Cl)c3F)nccc2c1NC(=O)c1csc2c(N)ncnc12 [Belvarafenib] (10 µM)
0: all assays above

C[C@@H]1CN(c2cc(-c3n[nH]c4ccc(OC5(C)CC5)cc34)ncn2)C[C@H](C)O1 (10 µM)
0: all assays above

CCc1ccc(OCC(=O)Nc2ccc(F)c([N+](=O)[O-])c2)cc1 (10 µM)
0: all assays above

O=C1NC(=Nc2c(Cl)cccc2Cl)S/C1=C\c1ccc2nccnc2c1 (2.5 µM)
2: FGFR1
4: FGFR2
0: all other assays above

CC(C)N1CCN(c2ccc(Nc3ncc4cc5n(c4n3)C3(CCCCC3)CNC5=O)nc2)CC1 [Lerociclib (dihydrochloride)] (2 µM)
4: [1]
3: FGFR2
2: ERN1
0: all other assays above

C[C@@H]1O[C@@H](O[C@@H]2[C@@H](O)[C@H](OCCc3ccc(O)c(O)c3)O[C@H](CO)[C@H]2OC(=O)/C=C/c2ccc(O)c(O)c2)[C@H](O)[C@H](O)[C@H]1O [Verbascoside] (10 µM)
0: all assays above

O=C(Nc1cccc(Nc2ncc(Br)c(NCCc3cnc[nH]3)n2)c1)N1CCCC1 (10 µM)
2: EGFR_L861Q | FGFR2
3: ERBB3 | [1]
0: all other assays above

CN1CC[C@@H](c2c(O)cc(O)c3c(=O)cc(-c4ccc(C(F)(F)F)cc4Cl)oc23)[C@@H]1CO [Voruciclib (hydrochloride)] (10 µM)
0: all assays above

CCN(CC)c1ccc2cc(-c3nc4cc(C)ccc4o3)c(=O)oc2c1 (10 µM)
0: all assays above

Ordered by molecular weight (low to high): part of the list above
CCN(CC)c1ccc2cc(-c3nc4cc(C)ccc4o3)c(=O)oc2c1 (10 µM)
0: all assays above

O=C(Nc1cccc(Nc2ncc(Br)c(NCCc3cnc[nH]3)n2)c1)N1CCCC1 (10 µM)
2: EGFR_L861Q | FGFR2
3: ERBB3 | [1]
0: all other assays above

C[C@@H]1O[C@@H](O[C@@H]2[C@@H](O)[C@H](OCCc3ccc(O)c(O)c3)O[C@H](CO)[C@H]2OC(=O)/C=C/c2ccc(O)c(O)c2)[C@H](O)[C@H](O)[C@H]1O [Verbascoside] (10 µM)
0: all assays above

(continued)

c1ccc(-c2nc(=NCCN3CCOCC3)sn2-c2ccccc2)cc1 [VP3.15 (dihydrobromide)] (10 µM)
0: all assays above

FC(F)(F)c1ccc(/C=C/c2nc(COc3ccc(CCCCn4ccnn4)cc3)co2)cc1 [Mubritinib] (10 µM)
1: EGFR_L861Q | FGFR2
2: [1]
0: all other assays above

NC1=NCCN1CC(=O)O [Cyclocreatine] (10 µM)
0: all assays above

N#CC(c1ccnc(OCc2ccc(CN3CCOCC3)cc2)n1)c1nc2ccccc2s1 (stereo not given) [Bentamapimod] (2.5 µM)
0: all assays above

CS(=O)(=O)c1ccc(-c2cnc(N)c(-c3ccc(C(F)(F)F)nc3)c2)cc1 (10 µM)
0: all assays above

O=c1[nH]c(C2CCCN2)nc2c1oc1ccc(Cl)cc12 (stereo not given) [XL413 (hydrochloride)] (10 µM)
0: all assays above

O=c1cc(N2CCOCC2)nc2c3ccccc3ccn12 [Compound 401] (10 µM)
0: all assays above

CCCCCCCC/C=C\CCCCCCCCCCCC(=O)O [Erucic acid] (10 µM)
0: all assays above

Filtered by structure: the entries above with a cyano group.
CNc1nc(Nc2cn(C(C)(C)C#N)nc2C)ncc1C(F)(F)F (10 µM)
0: all assays above

N#CC(c1ccnc(OCc2ccc(CN3CCOCC3)cc2)n1)c1nc2ccccc2s1 (stereo not given) [Bentamapimod] (2.5 µM)
0: all assays above

Following part:

Cc1ccc(NC(=O)c2ccc(CN(CCN(C)C)C(=O)c3cccnc3)cc2)cc1Nc1nccc(-c2cccnc2)n1 [PDGFRα kinase inhibitor 1] (10 µM)
0: all assays above

O=[N+]([O-])c1ccc2c(c1)S(=O)(=O)C=C2 [Stattic] (2.5 µM)
1: EGFR_L861Q
0: all other assays above

Oc1ccc(/C=C/c2cc(O)cc(F)c2)cc1 [Resveratrol analog 1] (10 µM)
0: all assays above

CC1(C)Cc2c(sc(NC(=S)NC(=O)c3ccccc3)c2C(=O)O)CO1 (10 µM)
0: all assays above

C=CCc1ccc(O)c(-c2ccc(O)c(CC=C)c2)c1 [Honokiol] (10 µM)
0: all assays above

COc1cc(N2CCOCC2)ccc1NC(=O)c1csc(-c2cccnc2)n1 [IRAK inhibitor 6] (10 µM)
0: all assays above

C=CC(=O)N1CCC[C@H](n2c(=O)n(-c3ccc(Oc4ccccc4)cc3)c3c(N)ncnc32)C1 [ONO-4059 (analog)] (10 µM)
0: all assays above

Cc1cc(C)nc(NS(=O)(=O)c2ccc(NC(=S)NC(=O)COc3ccc(Br)cc3Cl)cc2)n1 (2.5 µM)
0: all assays above
